# For at least one compound, name, drawing or mass did not settle the structure.
# Chains of the proteins cited; added tags and fusions are not shown.
# UniProt P14416, whole entry: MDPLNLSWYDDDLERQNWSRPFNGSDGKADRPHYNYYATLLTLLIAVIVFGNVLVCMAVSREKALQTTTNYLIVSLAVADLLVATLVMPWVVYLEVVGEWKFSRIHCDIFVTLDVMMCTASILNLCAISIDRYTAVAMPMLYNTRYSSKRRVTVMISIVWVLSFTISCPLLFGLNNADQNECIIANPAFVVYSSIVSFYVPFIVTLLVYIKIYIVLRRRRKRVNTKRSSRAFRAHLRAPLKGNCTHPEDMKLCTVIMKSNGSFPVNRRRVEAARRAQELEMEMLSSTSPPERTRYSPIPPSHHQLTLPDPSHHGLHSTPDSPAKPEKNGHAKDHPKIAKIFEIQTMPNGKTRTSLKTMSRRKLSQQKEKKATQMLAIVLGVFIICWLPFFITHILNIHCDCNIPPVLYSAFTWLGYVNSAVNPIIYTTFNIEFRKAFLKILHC
# Biological target: human D2 receptor (Homo sapiens (Human), UniProt P14416)
# Experiment: Test 1: binding activity for human D2 receptor ([3H]Spiperone, CHO cell membrane fraction)
# Conditions: selectivity ratio
# Method: Test 1: Evaluation of Binding Activity for Human 5-HT1A Receptor, Human 5-HT2A Receptor, and Human D2 Receptor
# Binding affinity of the present compound for human 5-HT1A receptor, human 5-HT2A receptor, and human D2 receptor was measured by the following procedures.
# Each mixture was incubated at room temperature for 60 minutes. Then, the mixture was added quickly on a glassfiber filter plate (Multiscreen FB, Millipore, Inc.) coated with 0.3% aqueous polyethylenimine, and vacuum-filtered. Radioactivity remaining on the filter was measured with a liquid scintillation counter (PerkinElmer, Inc.). Binding inhibition rate was calculated from the following formula.
# Ki of each compound was calculated from the following formula. Binding inhibition constant (Ki)=IC50/(1+S/Kd) wherein S is concentration of ligand; Kd is a binding dissociation constant of ligand to membrane, which is calculated from a saturated binding experiment conducted with the same cell membrane. A small Ki value means strong binding ability to a receptor.
smiles,measurement,value
Cn1cnc2c1CCN(CCN1CCN(c3nsc4ccccc34)CC1)C2=O [Example 54],D2 Ki/5-HT1A Ki,612
same,D2 Ki/5-HT2A Ki,259
